The assay has as its target T1, wild-type iRhom2-3XHA (human) (UniProt Q6PJF5).
T1 sequence: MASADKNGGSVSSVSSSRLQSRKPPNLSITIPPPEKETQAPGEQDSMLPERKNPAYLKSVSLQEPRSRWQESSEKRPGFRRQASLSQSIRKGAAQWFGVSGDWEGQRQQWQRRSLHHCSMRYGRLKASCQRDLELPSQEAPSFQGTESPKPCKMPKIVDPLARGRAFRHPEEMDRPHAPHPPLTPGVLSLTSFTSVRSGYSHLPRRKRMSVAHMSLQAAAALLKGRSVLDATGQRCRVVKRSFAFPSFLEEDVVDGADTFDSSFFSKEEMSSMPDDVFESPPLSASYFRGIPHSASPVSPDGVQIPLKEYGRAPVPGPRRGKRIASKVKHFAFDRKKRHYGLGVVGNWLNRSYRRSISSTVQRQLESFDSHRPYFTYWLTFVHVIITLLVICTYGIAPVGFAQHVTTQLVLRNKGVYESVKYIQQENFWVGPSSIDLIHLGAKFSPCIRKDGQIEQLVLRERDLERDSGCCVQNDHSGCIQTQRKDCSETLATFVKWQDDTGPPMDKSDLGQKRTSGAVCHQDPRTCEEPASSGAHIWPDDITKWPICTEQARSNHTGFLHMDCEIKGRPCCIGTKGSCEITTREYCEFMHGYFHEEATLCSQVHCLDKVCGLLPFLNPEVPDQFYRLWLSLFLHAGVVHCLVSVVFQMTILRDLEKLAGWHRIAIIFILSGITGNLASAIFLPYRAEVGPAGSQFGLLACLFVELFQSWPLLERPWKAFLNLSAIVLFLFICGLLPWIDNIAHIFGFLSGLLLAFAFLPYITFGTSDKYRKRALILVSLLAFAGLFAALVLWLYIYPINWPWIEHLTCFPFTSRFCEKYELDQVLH
The assay can be described thus: co-IP.

These are yes or no findings as the source states them, for the method shown. In cells and extracts the contact can be indirect. Some entries that bind do so weakly or less than the wild type. Where a sequence is shown, tags or fusion partners need not be part of it.

B1: SEC11A-Myc-FLAG (enzyme, UniProt P67812 1-179)
chain: MLSLDFLDDVRRMNKRQLYYQVLNFGMIVSSALMIWKGLMVITGSESPIVVVLSGSMEPAFHRGDLLFLTNRVEDPIRVGEIVVFRIEGREIPIVHRVLKIHEKQNGHIKFLTKGDNNAVDDRGLYKQGQHWLEKKDVVGRARGFVPYIGIVTILMNDYPKFKYAVLFLLGLFVLVHRE
As for B1, the binding entry is “binds”.

Source of the values: article doi:10.1101/2022.11.28.518246.
